In patent publication US20210220355A1, “ANTITUMOR AGENT FOR ACUTE MYELOID LEUKEMIA” (FUJIFILM Corporation, priority 2018, published 2021) one finds IC50 data, which are given here for one molecule.

What all share (experiment): inhibitory effect on proliferation of mutant FLT3-expressing 32D cell (intracellular ATP level)
Holding throughout (format): cell-based

The test system of test [1] is FLT3-ITD+D698N-expressing 32D cell. The settings on record: 72 h, Mutation type FLT3-ITD + D698N, day 3, ATP level, read-out: Effect determination (IC50 value class), proliferation. As to the method: (§1) 32D cell line expressing FLT3 gene mutations (FLT3-ITD+D698N, +N676T) found according to the random mutagenesis analysis method was cultured for a predetermined period of time (setting: 37° C. and 5% CO2, steam saturated), and then the cells were plated on a 384-well plate at a cell concentration of 299 cells/well. The random mutagenesis analysis method was carried out according to the following reference document.
(§2) Each of the test substances was dissolved in dimethyl sulfoxide (DMSO) to prepare a DMSO solution containing 20 mmol/L of the test substance. After serially diluting with DMSO and further diluting with a medium containing 10% serum, each of the test substance solutions having a concentration 10 times the final treatment concentration was prepared. […] In addition, a group (a positive control group) in which only DMSO containing no test substance was added to a well in which cells were plated and a group (a negative control group) in which only DMSO containing no test substance was added to a well in which only the medium was added were prepared. On day 3 after adding the test substance solution, the intracellular ATP level was measured with “Cell” ATP Assay reagent Ver. 2 (manufactured by TOYO B-Net Co., Ltd.) to evaluate cell viability.
(§3) The suppression rate was determined by assuming that the amount of luminescence signal in the negative control group corresponded to the suppression of cell viability by 100% and the amount of luminescence signal in the positive control group corresponded to the suppression of cell viability by 0%. […] 3 (manufactured by ITOCHU Techno-Solutions Corporation).

Test [2] deals with FLT3-ITD+N676T-expressing 32D cell. The settings on record: 72 h, Mutation type FLT3-ITD + N676T, day 3, ATP level, read-out: Effect determination (IC50 value class), proliferation. As to the method:
as §1, §2, §3

The subject of test [3] is FLT3-ITD-expressing 32D cell. The settings on record: 72 h, Mutation type FLT3-ITD, day 3, ATP level, read-out: Effect determination (IC50 value class), proliferation. On the procedure: as §1, §2, §3

Regarding `CO[C@@H]1[C@H](N(C)C(=O)c2ccccc2)C[C@H]2O[C@]1(C)n1c3ccccc3c3c4c(c5c6ccccc6n2c5c31)C(=O)NC4` [Midostaurin, 4′-N-benzoyl staurosporine, reference compound], the IC50 lay in the range of 0.01 to 0.05 µM in test [1], 0.05 to 0.1 µM in test [2] and 0.005 to 0.01 µM in test [3].
